Results published in patent US7528109 (GEORGETOWN UNIVERSITY, dated 2009).
These are yes or no findings as the source states them, for the method shown. Some binding calls cover weakened binding; strength is not graded here.

Protein sequences, listed by entry. Tags and fused reporters are not part of them. Lines headed by an entry give the natural chain unless they say otherwise; changes in a name come on top.
UniProt Q9UM73: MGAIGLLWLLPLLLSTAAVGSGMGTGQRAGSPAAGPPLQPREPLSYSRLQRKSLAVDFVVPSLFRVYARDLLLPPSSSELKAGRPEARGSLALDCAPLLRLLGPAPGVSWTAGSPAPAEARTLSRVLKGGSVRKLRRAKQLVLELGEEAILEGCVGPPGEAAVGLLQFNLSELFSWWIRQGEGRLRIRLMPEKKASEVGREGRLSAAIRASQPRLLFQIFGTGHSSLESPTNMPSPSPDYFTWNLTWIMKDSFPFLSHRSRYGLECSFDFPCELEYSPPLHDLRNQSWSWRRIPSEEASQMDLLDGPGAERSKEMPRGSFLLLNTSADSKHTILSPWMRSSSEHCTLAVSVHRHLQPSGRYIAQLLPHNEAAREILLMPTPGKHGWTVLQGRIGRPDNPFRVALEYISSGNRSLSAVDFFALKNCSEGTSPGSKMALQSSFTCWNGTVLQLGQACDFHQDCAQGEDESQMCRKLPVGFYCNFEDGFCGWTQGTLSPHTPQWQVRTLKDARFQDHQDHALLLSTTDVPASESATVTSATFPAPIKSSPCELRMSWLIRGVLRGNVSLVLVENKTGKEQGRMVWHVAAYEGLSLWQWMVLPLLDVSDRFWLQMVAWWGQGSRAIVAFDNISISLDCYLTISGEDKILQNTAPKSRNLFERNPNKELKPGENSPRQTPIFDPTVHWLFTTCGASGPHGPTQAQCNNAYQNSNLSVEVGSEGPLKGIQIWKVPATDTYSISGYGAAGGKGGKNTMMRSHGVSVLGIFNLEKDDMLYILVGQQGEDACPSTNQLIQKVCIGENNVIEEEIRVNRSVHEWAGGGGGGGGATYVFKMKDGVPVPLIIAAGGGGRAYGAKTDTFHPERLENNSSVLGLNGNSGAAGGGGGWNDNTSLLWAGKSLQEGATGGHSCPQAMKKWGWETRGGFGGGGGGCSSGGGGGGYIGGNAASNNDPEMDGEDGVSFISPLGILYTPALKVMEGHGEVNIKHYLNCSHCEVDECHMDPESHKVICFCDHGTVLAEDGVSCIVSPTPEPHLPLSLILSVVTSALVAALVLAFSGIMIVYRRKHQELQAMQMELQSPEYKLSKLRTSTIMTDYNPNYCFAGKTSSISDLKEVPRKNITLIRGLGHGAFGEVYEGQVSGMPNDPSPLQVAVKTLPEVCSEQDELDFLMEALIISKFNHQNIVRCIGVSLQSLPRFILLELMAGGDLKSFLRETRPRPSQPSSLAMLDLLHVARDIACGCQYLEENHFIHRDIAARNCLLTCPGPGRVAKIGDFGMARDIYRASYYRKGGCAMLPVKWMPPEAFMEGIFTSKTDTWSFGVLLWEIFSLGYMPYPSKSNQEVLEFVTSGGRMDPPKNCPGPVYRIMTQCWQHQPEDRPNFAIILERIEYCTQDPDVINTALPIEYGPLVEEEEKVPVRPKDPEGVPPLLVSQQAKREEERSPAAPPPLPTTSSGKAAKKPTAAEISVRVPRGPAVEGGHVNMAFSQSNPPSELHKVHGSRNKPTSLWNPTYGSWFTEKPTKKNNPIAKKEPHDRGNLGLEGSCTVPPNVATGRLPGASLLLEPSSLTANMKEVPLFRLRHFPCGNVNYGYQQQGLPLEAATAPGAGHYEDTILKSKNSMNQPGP

T1: pleiotrophin (PTN), purified from the culture supernatant of cells transfected with the human PTN cDNA (human) (UniProt P21246)
T1 sequence (looked up): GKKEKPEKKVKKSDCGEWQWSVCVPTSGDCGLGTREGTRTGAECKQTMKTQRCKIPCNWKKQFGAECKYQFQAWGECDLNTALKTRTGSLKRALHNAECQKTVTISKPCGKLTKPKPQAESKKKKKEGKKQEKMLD


Legend:
[1] = molecular target: T1, pleiotrophin (PTN), purified from the culture supernatant of cells transfected with the human PTN cDNA (human); experiment: competition for binding of radiolabeled PTN to 32D/ALK cells
[2] = molecular target: ALK (anaplastic lymphoma kinase) receptor, full length, expressed on cells (human) (UniProt Q9UM73); experiment: saturation binding of 35S-labeled PTN to 32D/ALK cells
[3] = molecular target: extracellular domain (ECD) of ALK (PTNR) produced as an Fc fusion protein in CHO cells (human) (UniProt Q9UM73); experiment: cell-free dot assay on nitrocellulose, immunodetection, both orientations

Row | Molecule | binding [1] | binding [2] | binding [3]
1 | extracellular domain (ECD) of ALK (PTNR) produced as an Fc fusion protein in CHO cells (from UniProt Q9UM73 19-1038) | binds |  | 
2 | pleiotrophin (PTN), purified from the culture supernatant of cells transfected with the human PTN cDNA (ligand, UniProt P21246 33-168, looked up, also called PTN ligand; radiolabeled PTN) GKKEKPEKKVKKSDCGEWQWSVCVPTSGDCGLGTREGTRTGAECKQTMKTQRCKIPCNWKKQFGAECKYQFQAWGECDLNTALKTRTGSLKRALHNAECQKTVTISKPCGKLTKPKPQAESKKKKKEGKKQEKMLD |  | binds | binds
